Our source for the binding values is paper PMC11217462.

Amino acid sequences for entries named in this document (tags omitted).
UniProt Q9Y4B6: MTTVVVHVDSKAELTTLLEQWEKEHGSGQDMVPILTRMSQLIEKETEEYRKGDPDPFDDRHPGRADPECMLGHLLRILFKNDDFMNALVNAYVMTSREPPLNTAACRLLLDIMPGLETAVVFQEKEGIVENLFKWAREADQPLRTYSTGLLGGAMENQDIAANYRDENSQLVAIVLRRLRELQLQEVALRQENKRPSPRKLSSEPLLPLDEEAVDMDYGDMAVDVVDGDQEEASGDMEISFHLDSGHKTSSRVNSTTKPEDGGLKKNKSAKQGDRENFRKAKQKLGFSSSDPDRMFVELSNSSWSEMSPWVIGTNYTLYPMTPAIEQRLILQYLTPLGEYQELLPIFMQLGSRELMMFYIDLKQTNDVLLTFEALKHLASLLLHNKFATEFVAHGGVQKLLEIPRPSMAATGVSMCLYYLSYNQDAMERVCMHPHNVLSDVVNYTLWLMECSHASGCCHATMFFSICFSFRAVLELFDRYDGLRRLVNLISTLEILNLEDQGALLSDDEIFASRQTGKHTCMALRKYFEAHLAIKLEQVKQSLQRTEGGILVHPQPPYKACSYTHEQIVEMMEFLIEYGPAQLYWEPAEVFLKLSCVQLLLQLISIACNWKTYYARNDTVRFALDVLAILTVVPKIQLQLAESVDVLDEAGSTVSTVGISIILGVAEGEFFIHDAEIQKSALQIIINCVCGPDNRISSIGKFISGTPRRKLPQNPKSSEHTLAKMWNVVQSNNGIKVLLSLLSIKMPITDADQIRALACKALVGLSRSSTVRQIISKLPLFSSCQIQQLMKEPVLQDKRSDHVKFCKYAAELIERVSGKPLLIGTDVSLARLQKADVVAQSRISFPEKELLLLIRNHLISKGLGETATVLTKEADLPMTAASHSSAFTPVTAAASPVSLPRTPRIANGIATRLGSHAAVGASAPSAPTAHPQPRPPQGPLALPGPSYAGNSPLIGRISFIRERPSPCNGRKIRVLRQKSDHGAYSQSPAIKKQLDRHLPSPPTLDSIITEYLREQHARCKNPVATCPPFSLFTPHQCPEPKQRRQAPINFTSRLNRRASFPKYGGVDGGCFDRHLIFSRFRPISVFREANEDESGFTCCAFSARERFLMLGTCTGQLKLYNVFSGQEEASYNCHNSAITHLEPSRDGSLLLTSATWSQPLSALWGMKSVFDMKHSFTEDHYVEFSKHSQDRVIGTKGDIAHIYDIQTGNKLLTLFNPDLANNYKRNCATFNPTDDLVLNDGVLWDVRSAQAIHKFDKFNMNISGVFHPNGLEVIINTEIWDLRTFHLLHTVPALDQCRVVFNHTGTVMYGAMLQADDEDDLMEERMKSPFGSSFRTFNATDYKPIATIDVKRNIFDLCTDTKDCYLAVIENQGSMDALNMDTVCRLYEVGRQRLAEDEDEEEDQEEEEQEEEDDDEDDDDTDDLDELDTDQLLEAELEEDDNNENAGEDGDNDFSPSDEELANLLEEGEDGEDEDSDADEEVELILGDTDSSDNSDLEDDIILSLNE

Results are given in words; binding and its absence hold for the method and conditions named. In cells and extracts the contact can be indirect. Some binding calls cover weakened binding; strength is not graded here.

The target in test [1] is 3xFLAG-tagged HIV-1 89.6 Vpr (HIV-1 (molecular clone 89.6)) (UniProt Q73369). Briefly: co-IP; K562 transduced with lentiviruses for 3xFLAG-tagged Vpr, Vpr Q65R or Vpx (also K562 stably expressing shScramble or shDCAF1); endogenous PU.1 and DCAF1; anti-FLAG M2 magnetic beads, eluted with 3xFLAG peptide, immunoblot. (A western blot detects proteins with antibodies after separation by electrophoresis.)

The target in test [2] is 3xFLAG-tagged HIV-1 89.6 Vpr Q65R (HIV-1 (molecular clone 89.6)) (UniProt Q73369). The test is described as above.
In test [3] the target is 3xFLAG-tagged HIV-1 89.6 Vpr (HIV-1 (molecular clone 89.6)) (UniProt Q73369). Nature of the test: co-IP; HEK 293T co-transfected with hPU.1 and 3xFLAG-89.6 Vpr; lysed in Pierce IP Lysis Buffer, anti-FLAG M2 magnetic beads, eluted with 3xFLAG peptide, immunoblot.
Test [4] shares this target. Nature of the test: co-IP; primary human MDMs transduced with lentivirus for 3xFLAG-89.6 Vpr; endogenous PU.1 and DCAF1; anti-FLAG M2 magnetic beads, eluted with 3xFLAG peptide, immunoblot.

DCAF1 (from UniProt Q9Y4B6 1-1507): the binding entry in test [1] is on record as “binds”; in test [2], “no binding”; in test [3] it was “binds”; in test [4] it was “binds”.
